The text below walks through data of patent US20170247694.

Sequences of proteins named here, by UniProt entry; tags and fusion partners are left off. A change or cut given only in a name is not applied to a line headed by its entry.
UniProt Q13886: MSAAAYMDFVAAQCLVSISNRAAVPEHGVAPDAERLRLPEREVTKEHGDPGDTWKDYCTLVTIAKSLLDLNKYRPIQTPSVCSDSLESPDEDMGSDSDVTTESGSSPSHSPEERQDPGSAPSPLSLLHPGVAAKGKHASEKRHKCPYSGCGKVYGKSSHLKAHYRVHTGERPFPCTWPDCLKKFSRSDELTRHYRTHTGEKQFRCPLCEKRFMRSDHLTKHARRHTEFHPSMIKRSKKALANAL
UniProt Q9UIH9: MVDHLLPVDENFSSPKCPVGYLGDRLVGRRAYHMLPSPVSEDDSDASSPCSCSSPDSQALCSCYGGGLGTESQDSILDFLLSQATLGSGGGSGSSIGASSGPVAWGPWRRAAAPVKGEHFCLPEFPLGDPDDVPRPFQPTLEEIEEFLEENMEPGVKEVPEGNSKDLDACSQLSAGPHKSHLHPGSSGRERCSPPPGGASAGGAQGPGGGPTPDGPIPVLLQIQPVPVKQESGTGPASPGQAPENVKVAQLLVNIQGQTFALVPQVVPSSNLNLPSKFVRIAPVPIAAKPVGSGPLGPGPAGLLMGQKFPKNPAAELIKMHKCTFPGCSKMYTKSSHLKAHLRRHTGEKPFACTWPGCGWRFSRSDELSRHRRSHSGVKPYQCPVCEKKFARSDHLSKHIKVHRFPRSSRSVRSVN
UniProt Q99612: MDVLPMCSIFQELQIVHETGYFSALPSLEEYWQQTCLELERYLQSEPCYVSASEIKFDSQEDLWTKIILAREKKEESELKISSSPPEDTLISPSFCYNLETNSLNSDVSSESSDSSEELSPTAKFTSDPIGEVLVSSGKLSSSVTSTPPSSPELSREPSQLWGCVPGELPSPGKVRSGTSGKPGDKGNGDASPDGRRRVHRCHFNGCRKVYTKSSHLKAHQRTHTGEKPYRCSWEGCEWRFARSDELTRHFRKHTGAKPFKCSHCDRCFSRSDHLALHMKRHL

Where cells or extracts were used, other partners may take part. For at least one entry, the source does not settle the construct or the ends of the probe. No signal at the amounts used counts as a negative.

What all share (assay): binding assay
In one data set the target is KLF9 (UniProt Q13886). As to conditions: protein in an extract, protein details: HeLa nuclear extract, Active Motif 36010, label: biotin.
The next data set has as its target KLF15 (UniProt Q9UIH9). Conditions: protein in an extract, label: biotin.
The next data set has as its target KLF6 (UniProt Q99612). As to conditions: protein in an extract, protein details: HeLa nuclear extract, Active Motif 36010, label: biotin.
[1] abbreviates: ELISA on nuclear extract, text says acts through KLF6, 9 and/or 15.
Where [2] appears, read: ELISA, lack of KLF binding to mutant decoys.

For the sequence “GGTGTTTGGGAGAGCTTTGGGAGGATACG (double strand) [TFD17]”, the binding result with KLF9 (setting [1]), with KLF15 (setting [1]) and with KLF6 (setting [1]) was “binds” throughout.
For the sequence “GATCCTTTGCCTCCTTCGATCCTTTGCCTCCTTCAAG (double strand) [TFD16]”, the binding result with KLF9 (setting [1]), in the data set with KLF15 (setting [1]) and with KLF6 (setting [1]) was “binds” each time.
Turning to “ATGCAGGAGAAAGATTGGCGTAGTATCTACTAG / CTTCATGATTTTATTGCTTTCAAAATCCAAAAT [MUT1]”, the binding result with KLF9 (setting [2]), in the data set with KLF15 (setting [2]) and with KLF6 (setting [2]) was “no binding” throughout.
For “GTTATGCGTTTGTAGATGCTTTCGTTATAG / CTATTTCGAAACGATCTACATTGGCATAAC [MUT2]”, the binding result with KLF9 (setting [2]), in the data set with KLF15 (setting [2]) and with KLF6 (setting [2]) was “no binding” throughout.
